Experimental data as given in patent US20260265393A1.
These are yes or no findings as the source states them, for the method shown. Binding can be weak; no strength is given.

B1: 13B3 anti-human CD27 mouse monoclonal antibody (hybridoma clone) (antibody, V domains shown)
VH: QVQLQQSGPEQVKPGASVKISCKTSGYAFSQSWMNWVKQRPGQGLEWIGRIYPGDGDTNYNGIFKGKATLTADKSSSTAYMQLSSLTSLDSAVYFCASMIRTTYVMDHWGQGTSVTVTS
VL: DIVLTQSPATLSVTPGDSVSLSCRASQSVSNSLHWYQQKSHESPRLLIMYTSQSISGIPSRFSGSGSGTDFTLSINSVETEDFGMYFCQQSNSWPLTFGAGTKLELK
B2: 16B1 anti-human CD27 mouse monoclonal antibody (hybridoma clone) (antibody, V domains shown)
VH: B1 VH
VL: B1 VL
B3: 17H8 anti-human CD27 mouse monoclonal antibody (hybridoma clone) (antibody, V domains shown)
VH: EVKLEESGGGLVQPGGSMKLSCVASGFTFSNYWMNWVRQSPEKGLEWVAEIRLKSNNYATYYAESVKGRFTISRDDSKSSVYLQMNSLRGEDTGIYYCTLYDSSYYYAMDYWGQGTSVTVSS
VL: DVVLTQTPLSLPVNIGDQASISCKSTQSLLHSDGFTYLDWYLQKPGQSPQLLIYLVSNRFLGVPDRFSGSGSRTDFTLKISRVEAEDLGVYYCFQSNYLPLTFGGGTKLEI

Molecular target: cynomolgus macaque CD27 recombinant protein (solid-phase) (cynomolgus macaque)
Assay: solid-phase binding, hybridoma screening

| binding | Binder |
| --- | --- |
| binds | B1 |
| binds | B2 |
| binds | B3 |
